Library screening results

Measurements from “University of Dundee, Small-Polar-MMV Screening Library” (2021), ChEMBL document CHEMBL3988442.

A: 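Whole-cell assay for inhibitors of Mycobacterium tuberculosis growth, labelled Cornell in the record; the read-out is not stated. The concentration is filed as 10 mM, unlikely as a test dose, so the dose is not known. The record gives no direction; compounds strong in two other growth screens of this library score well above the rest, so higher reads as stronger inhibition. About 53,000 compounds were tested under these conditions; 1.7% (about 900) showed 50% or more at least once.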
B: 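Assay on Mycobacterium tuberculosis, filed only as a heat shock assay from Cornell; the read-out is not stated. The concentration is filed as 10 mM, unlikely as a test dose, so the dose is not known. Higher reads as stronger inhibition (inferred: compounds with an IC50 in retests scored well above the rest). Size under these conditions: about 69,000 compounds, about 930 of them at 50% or above in at least one test.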

Values are the deposited “Percent Effect”, in %.
How 0% and 100% were set is not recorded. Most values in the screen are low, and negative values occur.
The compounds are a random part of those screened.

{"smiles": "Cc1ccccc1CS(=O)(=O)CC(=O)NCc1ccccc1F", "A": 13.69, "B": 18.75}
{"smiles": "CC(=O)c1cc(CN2C[C@@H](CN3CCCC3)[C@@H](CO)C2)n(C)c1", "A": 17.75, "B": 0.1699}
{"smiles": "O=C(O)C(F)(F)F.[H][C@@]12CCN(C3CCOCC3)[C@]1([H])CC[C@H](C(=O)N1CCOCC1)O2", "A": 0.461, "B": 10.83}
{"smiles": "O=C(NCCCn1cncn1)c1ccc(-c2ccco2)[nH]c1=O", "A": -14.84, "B": -4.338}
{"smiles": "CNS(=O)(=O)c1cccc(CNc2ccc(C(F)(F)F)nn2)c1", "A": 15.78, "B": 7.114}
{"smiles": "CC(=O)N(C)c1nc(Cn2nnnc2C(C)(C)C)cs1", "A": 8.787, "B": 10}
{"smiles": "Cc1nn(C)c(C)c1C1CCCN1Cc1cn2ccsc2n1", "stereo": "stereo not given", "A": 14.47, "B": 9.388}
{"smiles": "Cc1csc(N2CCN(C(=O)C(C(C)C)n3cncn3)CC2)n1", "stereo": "stereo not given", "B": -21.73}
{"smiles": "Cc1cc(-c2cc(S(=O)(=O)N3C[C@H](C4CC4)[C@@H](N)C3)c(C)s2)on1", "A": -5.045, "B": 6.607}
{"smiles": "Cc1ccc2cc(CN(C)Cc3nccs3)c(=O)[nH]c2c1", "A": 13.41, "B": 1.852}
{"smiles": "c1ccc(-c2cnc(CNCC3CCCN3c3cccnn3)o2)cc1", "stereo": "stereo not given", "B": 29.43}
{"smiles": "O=c1[nH]nc(CNc2ncc(Br)cn2)[nH]1", "A": 15.5, "B": -8.367}
{"smiles": "Cc1ccc2c(n1)N(C)CCN(CCN1CCCC1)C2.O=C(O)C(F)(F)F.O=C(O)C(F)(F)F.O=C(O)C(F)(F)F", "A": 23.1, "B": -54.14}
{"smiles": "CC(C)Cc1nc(CSC2CCCN(c3cnn(C)c3)C2=O)no1", "stereo": "stereo not given", "A": 22.5, "B": 9.032}
{"smiles": "CCCc1nc(NC2(COC)CCCC2)c2cnn(C)c2n1", "A": 21.48, "B": -33.82}
{"smiles": "NCCC1CN(Cc2cnc3c(-c4ccccc4)cnn3c2)CCO1", "stereo": "stereo not given", "A": -17.81, "B": -34.66}
{"smiles": "O=C(O)c1c[nH]c2cc(NS(=O)(=O)c3ccc(Cl)cc3F)ccc12", "B": 8.134}
{"smiles": "Cc1nc(C2(NCC(=O)NC(=O)NCc3cccs3)CCCCC2)no1", "A": 1.181, "B": -10.15}
{"smiles": "Cc1c(C(=O)NCCCC(N)=O)sc2ccc(F)cc12", "B": -6.773}
{"smiles": "[H][C@@]12CS(=O)(=O)C[C@]1([H])N(C(=O)c1ccc3nccnc3c1)CCN2CCO", "A": 11.03, "B": -1.555}
{"smiles": "Cc1ccc2c(c1)C(NCc1nccn1Cc1ccccc1)CCCO2", "stereo": "stereo not given", "A": 0.9692, "B": 102}
{"smiles": "CCN(Cc1nnnn1C1CC1)c1cc(C)ccc1C", "B": -24.53}
{"smiles": "CCN1CCOC(CNCc2cnc(C(C)(C)C)s2)C1", "stereo": "stereo not given", "A": 19.52, "B": -15.19}
{"smiles": "CCc1nnc(CN2CCc3[nH]c(-c4ccc(OC)cc4)nc3C2)o1", "A": 3.676, "B": -0.2554}
{"smiles": "CCOC(=O)[C@H]1CNC[C@@H]1C(=O)OCC", "A": 41.1, "B": 20.6}
{"smiles": "COCCCC1(CO)CCCN(CCc2ccccn2)C1", "stereo": "stereo not given", "A": -7.592, "B": -22.01}
{"smiles": "COc1ccc(CN2CCn3cccc3C2C)cc1F", "stereo": "stereo not given", "A": 13.71, "B": 13.47}
{"smiles": "COCC1(C(=O)N[C@H]2CN(c3ccnc(C)c3)C[C@@H]2C2CC2)CCC1", "A": -14.05, "B": 9.599}
{"smiles": "CN1CCN(CCOc2ccc(NC(=O)c3ccc[nH]3)cc2)CC1", "A": 11.36, "B": -28.79}
{"smiles": "Cc1nc2ccccc2c(=O)n1CCC(=O)N1CCSCC1", "B": -2.829}
{"smiles": "CSCC(=O)Nc1ncc(I)cc1C", "B": -37.54}
{"smiles": "Cc1noc(C)c1CNC(=O)N1CCC(C(O)c2ccccc2)CC1", "stereo": "stereo not given", "A": -32.64, "B": -3.167}
{"smiles": "Cc1nnc(C2CCN(c3ccc(F)cc3)CC2)o1", "A": 0.33, "B": 12.38}
{"smiles": "CC(=O)N(C)CC(=O)NC(CC(C)C)c1cccs1", "stereo": "stereo not given", "B": -11.53}
{"smiles": "O=C(Cc1cccnc1)NC1CCCN(CCCc2ccccc2)C1", "stereo": "stereo not given", "A": 18.16, "B": 10.72}
{"smiles": "O=C1NC2(CCc3ccccc31)CCN(C(=O)c1ccncc1)C2", "stereo": "stereo not given", "A": 9.772, "B": -11.75}
{"smiles": "Cc1cccc(N2CCc3ncnc(C4CC4)c3CC2)n1.O=C(O)C(F)(F)F", "A": 12.22, "B": -4.077}

Some entries from above, unchanged:

| SMILES | A | B |
|---|---|---|
| `CC(C)Cc1nc(CSC2CCCN(c3cnn(C)c3)C2=O)no1` (stereo not given) | 22.5% | 9.032% |
| `CC(=O)N(C)c1nc(Cn2nnnc2C(C)(C)C)cs1` | 8.787% | 10% |
| `Cc1cc(-c2cc(S(=O)(=O)N3C[C@H](C4CC4)[C@@H](N)C3)c(C)s2)on1` | -5.045% | 6.607% |